Data reported in the supplement of paper PMC3334620.
Over roughly 33,000 sequences, “E-score (-0.5 to 0.5)” has its median near -0.0014; the highest 2% begin near 0.25. Some of the results follow.

These sequences were tested against T1, Cad1 (UniProt P24813) (assay: PBM E-score (8-mer binding enrichment) (E-score (-0.5 to 0.5)); higher = stronger / more preferred TF binding). Conditions: protein concentration: 100 nM; construct: GST-full length.
T1 sequence: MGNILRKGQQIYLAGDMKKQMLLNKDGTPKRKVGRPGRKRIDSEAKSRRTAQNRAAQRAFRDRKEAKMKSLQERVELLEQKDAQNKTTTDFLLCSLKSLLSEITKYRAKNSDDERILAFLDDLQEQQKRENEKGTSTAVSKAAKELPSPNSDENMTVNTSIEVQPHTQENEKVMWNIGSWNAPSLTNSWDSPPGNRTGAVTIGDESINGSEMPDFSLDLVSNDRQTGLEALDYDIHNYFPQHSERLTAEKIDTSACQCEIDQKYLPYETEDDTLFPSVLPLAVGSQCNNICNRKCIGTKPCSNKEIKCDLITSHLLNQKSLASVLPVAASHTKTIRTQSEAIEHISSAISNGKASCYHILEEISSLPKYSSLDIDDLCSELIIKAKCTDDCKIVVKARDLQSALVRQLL
Method in brief: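 E-scores (a modified Wilcoxon-Mann-Whitney statistic) were assigned by the Universal PBM Analysis Suite to every ungapped eight-base word pooled with its reverse complement. The input came from universal all-10-mer Agilent arrays made double-stranded by primer extension and probed with GST-tagged yeast transcription factors at about 100-200 nM. Fluorescent anti-GST detected bound protein, and masliner normalised the scans.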

Sequence	PBM E-score
CTTCGGGC	-0.127
CACCGATG	-0.179
CCCGATTA	0.155
AGGACTGC	-0.136
AGACTCAG	0.0244
AGATTTTA	-0.0429
TATTGGGA	-0.0435
GGAGGACC	-0.28
TCGCTAAA	0.0566
CACTCACA	0.0496
AGGTCCAT	-0.0267
ACTGTTCA	-0.0756
CACCGTCC	0.0473
AATCGCCG	0.0454
GCCGGTGA	0.058
CGATATCA	0.184
AGGCCGCA	-0.00988
ATTATATA	0.306
CCGACACA	0.0345
AGATAAAA	0.161
AATTTCGT	0.131
AGTAACGA	0.0284
GACACATA	0.127
AGGAACTC	0.111
CGCTTGAG	-0.0753

Sequence	PBM E-score
AAGCGACA	0.0768
AAGGTAGT	0.0321
AACGCAGC	0.167
ACTCATCC	0.119
GCTACGAA	0.00936
ATGATTGG	-0.0266
AAACAGCC	-0.233
AGCCTGAC	-0.198
GCATGTAA	-0.0688
ATCAGGCA	-0.00079
ACCTCTCT	-0.179
AAAGCGTA	-0.0921
GCACGATA	0.0573
ACTAAAGC	0.175
GACCCACC	-0.178
AACGCTCC	-0.0134
GATACCCA	0.122
CAATCTGG	-0.00447
CACATTAA	0.0879
TAGATCAA	0.0586
AAAGTGAT	-0.0108
CCCCATGA	-0.121
GGACTCCA	-0.137
AGAAAACG	0.0068
ACCATCCA	-0.0249

Sequence	PBM E-score
CCATCAAG	-0.109
GGCAAACC	-0.125
AGCGTTCA	-0.209
TAACCTCA	-0.0309
GCGGTGAA	0.0529
AAATCTGA	0.116
AGCTATGA	-0.043
CATCGGAC	-0.0526
ATTAAGCG	0.152
CCTGGGCA	-0.275
ACGTCTAT	-0.155
CGTCCGGA	0.099
CACGTATA	-0.00072
CATACCTC	-0.0139
CGAGTGAG	0.135
GTCTTCGA	-0.0588
ACCTGTGC	-0.0872
GGTTGCTA	-0.176
GCGTCATA	0.0658
AGAACACT	0.126
CTACCAAA	0.0183
TCTCCAGA	-0.204
AAGAGTGA	0.0401
CTCCCAAC	-0.196
ACTCAGCA	0.185

Sequence	PBM E-score
CTCGTCGC	-0.0392
AGGTCAAA	-0.195
GACTGGGA	-0.113
ATAGCGAG	0.0707
GACAGGGC	-0.117
ACCCTGCT	-0.279
CGTCGACA	0.0742
GACAAGCC	-0.0138
ACTCTCAG	-0.0475
CCATGAGC	0.00289
CTCCGAAC	0.0184
ATGTGTTG	0.17
GGAATTAA	0.208
GGTCAGAA	-0.102
CCGGAAAC	0.125
CATACAAG	-0.25
AGGCTTGG	-0.0528
AACCCGCA	-0.14
ACATAGTC	-0.0356
GAGTCGAC	0.235
ATAAATCG	0.181
AGAAAGTC	-0.0353
CAAACCGA	0.0658
GTGAAGGA	-0.0964
CACAGCCC	-0.129

Sequence	PBM E-score
AAAAATTT	0.269
GCAAAGAA	0.0155
ACGAAAAT	0.189
ATGAACAC	0.0691
GAGCGAGC	0.0994
GCTTCGCA	-0.109
AACAGGGG	-0.0212
ATACGATG	0.0803
AGGGCAAG	-0.0578
ACTTCAAG	-0.086
ACTGTCTA	0.00817
ACGTATGG	-0.133
TCGTCTAA	-0.0389
CCGGGATC	0.0959
GACTCCTC	-0.0684
AGAGGCCA	-0.285
AGTGCGAG	-0.0178
ATAGTCTG	0.0633
CGTATCTC	-0.00599
TGTCCCAA	-0.0531
AGCCCGAT	0.129
ATCGTGGG	0.0806
ATAGGCAC	-0.112
AGTTAGCA	0.084
ACTATACG	-0.0161

In another format: results already given

| Sequence | PBM E-score |
| --- | --- |
| ACTGTCTA | 0.00817 |
| ACGTATGG | -0.133 |
| TCGTCTAA | -0.0389 |
| CCGGGATC | 0.0959 |

Additional results

Sequence	PBM E-score
AGCGGTAA	0.00823
AATAAAGA	0.195
AATGCATA	0.0741
ACCAGAGG	-0.164
ACAATAGG	-0.0595
CAAGGTAA	0.0428
ATGGATTG	0.0032
CTTATCAA	0.256
CTCTTATC	0.16
AAAATCAG	0.0235
AGAGAAGC	-0.0596
GGCTGGCA	-0.291
GCTCTACA	-0.0616
AGTACTAC	0.145
ATTCATAC	0.125
AACCATCA	0.0353
GATTTTAA	0.209
ACAACAGG	-0.118
CTAAAAAA	0.11
ATGAGTGC	0.0261
ATGCAAAT	0.0985
ACCGTCTC	0.138
CCGTTGAC	-0.164
ATGTAAAA	0.0559
CCTTTCCC	-0.271

Sequence	PBM E-score
AAAGATCA	0.0543
ATCAAGGA	0.0737
ACCGACCA	0.0873
ACACCTAC	0.131
AGCGGTTA	-0.157
AGGGAGCG	-0.18
ATGCCTTC	-0.162
CTGGTGTA	-0.184
CCATCTCG	-0.0839
ACGATTGG	0.0382
ATATTCAT	0.114
CATACCGG	0.0862
ACTGGTTA	-0.0961
ACTTTAAC	-0.0413
ACAGGCCA	0.0569
ATTTTGGC	0.193
AGAAGTAG	-0.113
ATATCCCA	0.0408
CAGTTGTA	0.0349
CGTCAATC	0.0566
ATTTCACC	0.118
CAACGTTC	-0.009
TACCCCGA	0.00562
GTACAAAA	0.0779
ACTCAAGG	-0.165

Sequence	PBM E-score
ATCGTGTG	0.0714
CTGTTGAA	0.184
AGGTTGGA	0.0012
CTTTCCTA	-0.0978
CATAGCTA	-0.103
ATGGAGAG	-0.231
CGAGGCCA	0.0424
GTCGGATA	0.0779
ACTATATC	0.109
CCCGTGAC	-0.165
GGGGACCC	-0.309
AGGCGACG	-0.0289
AATCTCCT	-0.109
CAGGGCGC	0.0228
CGCGGAAC	0.135
GGCGACAA	-0.0864
ACAGCCAA	0.0312
TCAGTCAA	-0.153
GATTGCGC	0.0674
AGCGGAGA	0.104
ACAAGGGC	-0.275
CCCTAAGG	-0.174
AGTGTAAG	0.0343
GCTAACCA	0.0219
AGCCCTAG	-0.0198

Sequence	PBM E-score
CGGCTCAA	0.0538
TCACCTCA	-0.13
TATTGTAA	-0.0662
ATTGGCTG	-0.131
GGATTCAC	0.0135
AGGCCTCC	0.0546
GAGCTTAC	0.151
CGCCGGGC	-0.0376
GGAGGCCC	-0.351
AAGTCGCT	-0.0909
ATGCTAAT	0.19
CATTAAAA	0.165
CGTGATGA	0.0624
CTTCGAGC	0.0427
AAAATCTC	0.061
ATTCGCCA	0.0814
CTGACCAC	-0.128
GCCAAGAC	-0.0614
GGGGTAGA	-0.0967

Exported bar-delimited: part of the list above
Sequence | PBM E-score
ATTGGCTG | -0.131
GGATTCAC | 0.0135
